For one substance, binding results are on record in article doi:10.1101/2025.07.14.664640.

Chains of the proteins cited; added tags and fusions are not shown.
UniProt Q14247: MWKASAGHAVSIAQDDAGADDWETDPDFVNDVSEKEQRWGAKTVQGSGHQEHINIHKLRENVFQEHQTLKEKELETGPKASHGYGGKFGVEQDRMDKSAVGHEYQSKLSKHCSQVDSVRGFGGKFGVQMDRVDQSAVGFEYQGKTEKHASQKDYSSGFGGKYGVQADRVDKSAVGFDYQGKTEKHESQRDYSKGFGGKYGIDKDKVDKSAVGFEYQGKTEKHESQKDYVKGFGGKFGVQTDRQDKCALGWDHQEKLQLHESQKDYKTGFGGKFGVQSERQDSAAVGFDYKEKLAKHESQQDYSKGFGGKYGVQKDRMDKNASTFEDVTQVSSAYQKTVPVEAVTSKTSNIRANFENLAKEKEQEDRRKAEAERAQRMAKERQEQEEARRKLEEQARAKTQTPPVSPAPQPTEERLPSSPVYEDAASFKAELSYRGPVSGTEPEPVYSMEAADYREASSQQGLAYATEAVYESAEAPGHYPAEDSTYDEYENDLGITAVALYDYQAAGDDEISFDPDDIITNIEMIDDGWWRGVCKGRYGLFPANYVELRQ

No constants are given. Whether binding was seen depends on the method and setting. In cells and extracts the contact can be indirect. Some results given as binding are weak or reduced against the parent protein; the word gives no strength. Where a sequence is shown, tags or fusion partners need not be part of it.

This assay addresses T1, EGFP-HS1BP3 WT (UniProt Q53T59).
T1 sequence: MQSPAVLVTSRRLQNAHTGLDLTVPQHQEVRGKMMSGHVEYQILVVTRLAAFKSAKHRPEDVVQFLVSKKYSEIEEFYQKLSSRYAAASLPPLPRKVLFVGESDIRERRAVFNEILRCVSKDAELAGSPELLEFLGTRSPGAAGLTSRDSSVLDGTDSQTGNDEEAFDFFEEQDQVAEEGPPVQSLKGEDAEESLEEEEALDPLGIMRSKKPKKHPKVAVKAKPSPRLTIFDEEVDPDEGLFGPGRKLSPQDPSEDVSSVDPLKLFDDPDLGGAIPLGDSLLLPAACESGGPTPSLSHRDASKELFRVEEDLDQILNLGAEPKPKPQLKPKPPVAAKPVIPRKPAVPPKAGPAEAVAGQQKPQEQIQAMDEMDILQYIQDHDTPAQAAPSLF
Put plainly: co-IP.

On to “Src substrate cortactin, endogenous in MKN-74 cells (from UniProt Q14247 1-550)”, for which the binding result is “binds”.
